# Assay results as given in PubChem BioAssay AID624296 (National Center for Advancing Translational Sciences (NCATS), 2012).
# About 9,900 (2.8%) of roughly 350,000 compounds were called active. All entries are inconclusive by the source's own rule. Clear calls are listed elsewhere. Calls follow the shape of the dose curve; as a rule, active = well fitted activation curve with a large enough effect; inconclusive = small, poorly fitted or top-dose-only effect; inactive = no such curve, though single readings can be large or run the other way.
# Experiment: A quantitative high throughput screen for small molecules that induce DNA re-replication in MCF 10a normal breast cells. Also: nearly all actives have a fitted effect of over 50% in size.
# Conditions: MCF 10A DNA re-replication, Hoechst nuclear intensity, 48 h
# Potency is read from the fitted curve at half-maximal effect.
row,SMILES,Potency
1,CP(=O)(Nc1ccc(SC(F)(F)F)cc1)Oc1ccc(Cl)cc1 (configuration not stated),inconclusive: 7.31 µM
2,CP(=O)(NC(=O)Nc1ccccc1)Oc1ccccc1 (configuration not stated),inconclusive: 6.51 µM
3,O=[N+]([O-])c1cc([N+](=O)[O-])c(Nc2cccnc2)c([N+](=O)[O-])c1,inconclusive: 25.9 µM
4,CCOC(=O)c1ccc(NP(C)(=O)Oc2cc(C)cc(C)c2)cc1 (configuration not stated),inconclusive: 23.1 µM
5,O=[N+]([O-])c1cc([N+](=O)[O-])c(-c2cnn(-c3ccccc3)c2)c([N+](=O)[O-])c1,inconclusive: 18.4 µM
6,CC1CCOC(=O)C=CC=CC(=O)OC2CC3OC4C5OC5(C)CCC4(COC(=O)C1O)C2(C)C31CO1 (configuration not stated),inconclusive: 0.366 µM
7,O=[N+]([O-])c1ccc(OP2(=O)COCCO2)cc1 (configuration not stated),inconclusive: 6.51 µM
8,COc1ccc(NP(C)(=O)Oc2ccccc2OC)cc1 (configuration not stated),inconclusive: 29.1 µM
9,CP(=O)(Nc1ccccc1F)Oc1ccccc1 (configuration not stated),inconclusive: 23.1 µM
10,CCCCCOc1ccc(NP(C)(=O)Oc2ccc(Cl)cc2Cl)cc1 (configuration not stated),inconclusive: 20.6 µM
11,CCCCCCCCCCCCCCCC1C[N+](C)(C)CCOP(C)(=O)O1 (configuration not stated),inconclusive: 8.2 µM
12,CP(=O)(Nc1ccc(Cl)cc1Cl)Oc1ccccc1 (configuration not stated),inconclusive: 0.731 µM
13,CP(=O)(OCCOc1ccccc1)OCCOc1ccccc1,inconclusive: 1.84 µM
14,O=[N+]([O-])c1cc([N+](=O)[O-])c(Nc2ccccn2)c([N+](=O)[O-])c1,inconclusive: 16.4 µM
15,CP(=O)(Nc1ccc(Cl)cc1)Oc1ccc(F)cc1 (configuration not stated),inconclusive: 6.51 µM
16,CN(C)C(=O)c1c([N+](=O)[O-])cc([N+](=O)[O-])cc1[N+](=O)[O-],inconclusive: 14.6 µM
17,CP(=O)(OC12CC3CC(CC(C3)C1)C2)OC12CC3CC(CC(C3)C1)C2,inconclusive: 20.6 µM
